Measurements from PubChem BioAssay AID493014 (National Center for Advancing Translational Sciences (NCATS), 2011).
Some of the results follow. The main result of the screen is listed elsewhere. These columns were measured beside it and carry no call. The list favours compounds with an active or inconclusive main result. Potencies come from curve fits of mixed quality, noted in brackets.

Experiment: qHTS Assay to Find Inhibitors of Chronic Active B-Cell Receptor Signaling
Details: ABC-DLBCL IkBa-CBG/CBR reporter, luminescence ratio (green luciferase fused to IkBa over red control in TMD8 lymphoma cells), 4 h
Summary of the method: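 TMD8 ABC-DLBCL cells carrying doxycycline-inducible green luciferase fused to IkappaBalpha plus unfused red luciferase were exposed to compounds (up to 46 uM) for 4 hrs at 37C. Activity came from the overlap-corrected green/red luminescence ratio.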

[1] = measured here: CBR red luminescence, cell number
[2] = measured here: IkBa-CBG green luminescence

Row | SMILES | AC50 [1] | AC50 [2]
1 | Cn1c(SCC(=O)N2CCN(Cc3ccccc3)CC2)nnc1-c1ccncc1 | 0.13 µM [rising, full curve, poor fit] | 
2 | c1ccc(CO/N=C(\c2ccc(C3CC3)nc2)C2CC2)cc1 | 25.1 µM [rising, single point] | 
3 | CC(C)Oc1cccc(-c2cc(C(=O)N3CCN(S(C)(=O)=O)CC3)c3ccccc3n2)c1 | 4.11 µM [rising, single point] | 
4 | Cc1cc[n+](-c2[nH]c(=O)sc2/C=N/N=C(\[O-])CCn2c3ccccc3c3ccccc32)cc1 | 3.16 µM [rising, partial curve] | 
5 | CCCc1cnc(N2CCN(C(=O)c3ccc(F)cc3)CC2)nc1 | 0.631 µM [rising, partial curve, poor fit] | 
6 | O=C(NNC(=O)c1ccccc1O)c1ccc(-c2ccc([N+](=O)[O-])cc2)o1 | 20.6 µM [falling, single point] | 
7 | Cc1ccc(CNC(=O)Cc2ccc(Br)cc2)cc1 | 3.16 µM [rising, full curve] | 
8 | COc1ccc(/C=C2/N=C3CCCCCN3C2=O)cc1 | 2.51 µM [rising, partial curve] | 
9 | COc1ccc(C(=O)OCC(=O)NCCN2C(=O)CSC2=O)cc1[N+](=O)[O-] | 0.00461 µM [rising, full curve, poor fit] | 
10 | CCOc1ccccc1N=Cc1c(O)c2ccccc2oc1=O | 3.98 µM [falling, full curve] | 
11 | O=C(/C=C/c1ccccc1Cl)N(Cc1ccc(Cl)cc1)C1CCS(=O)(=O)C1 (centres undefined) | 29.1 µM [falling, single point] | 32.6 µM [rising, partial curve, poor fit]
12 | Cc1oc(-c2ccc(Cl)cc2)cc1-c1nn2c(-c3ccoc3C)nnc2s1 | 1.16 µM [falling, full curve] | 
13 | Cc1cc(C)n(CC(O)Cn2c3ccccc3c3ccccc32)c(=O)n1 (centres undefined) | 10 µM [falling, partial curve, poor fit] | 
14 | O=C(CSc1nnc(-c2ccccc2)o1)N1CCCCC1 | 12.6 µM [falling, single point] | 
15 | CN(C)c1nc(OCCNC(=O)Nc2ccccc2)nc(N(C)C)n1 | 4.47 µM [rising, partial curve, poor fit] | 
16 | COc1cc(-c2noc(C)c2C#Cc2nccn2C)cc(OC)c1OC | 7.08 µM [falling, full curve] | 
17 | CCOC(=O)C1=C(C)C(c2cccc(Oc3ccccc3)c2)NC(=S)N1 (centres undefined) | 29.1 µM [falling, single point] | 
18 | CCOc1ccc(S(=O)(=O)NCC(c2cccs2)S(=O)(=O)c2ccc(C)cc2)cc1 (centres undefined) | 0.1 µM [falling, full curve, poor fit] | 
19 | CN(C1=C(NC(=O)c2ccc(Cl)cc2)C(=O)c2ccccc2C1=O)c1ccccc1 | 6.51 µM [falling, partial curve, poor fit] | 
20 | O=C(NCc1ccco1)C1CC(c2ccc(F)cc2)=NO1 (centres undefined) | 35.5 µM [falling, single point] | 
21 | S=c1[nH]nc(-c2ccccc2)n1C1C=CCCC1 (centres undefined) |  | 31.6 µM [falling, single point]

Row | SMILES | AC50 [1] | AC50 [2]
22 | CC(C)c1nnc(NC(=O)C2c3ccccc3Oc3ccccc32)s1 | 7.31 µM [falling, partial curve, poor fit] | 
23 | CCC(=O)Nc1cccc(C(=O)/C=C/c2cc(Br)ccc2OC)c1 | 23.1 µM [falling, partial curve, poor fit] | 
24 | CC(C)NC(=O)CSc1ncccc1-c1nc2ccccc2[nH]1 | 3.16 µM [falling, full curve, poor fit] | 
25 | Cc1c(C(=O)Nc2ccccc2F)cnn1-c1ccccc1 | 7.08 µM [falling, partial curve] | 
26 | CC(=O)Nc1cccc(NS(=O)(=O)c2cn(C)c(=O)n(C)c2=O)c1 | 1 µM [rising, full curve, poor fit] | 
27 | CCC(=O)Nc1nc(C)c(-c2csc(Nc3ccccn3)n2)s1 | 12.6 µM [falling, partial curve] | 
28 | O=C(O)c1ccc(N/N=C/c2ccc(-c3ccc(Cl)cc3Cl)o2)cc1 | 0.178 µM [falling, partial curve, poor fit] | 
29 | COc1ccccc1NC(=O)Nc1ccc(Br)cn1 | 4.47 µM [falling, full curve, poor fit] | 
30 | Cn1nnnc1SCCNCc1ccccc1F | 23.1 µM [falling, single point] | 
31 | CCn1c(SCc2nc3ccccc3c(=O)[nH]2)nnc1-c1cccnc1 | 7.31 µM [rising, partial curve] | 
32 | c1cnc2c(OCc3nc4ccccc4[nH]3)cccc2c1 |  | 2.31 µM [rising, partial curve, poor fit]
33 | Cc1ccc2c(c1)C(O)(C1COC(C)(C)CC1=O)C(=O)N2C (centres undefined) | 31.6 µM [rising, single point] | 25.1 µM [falling, single point]
34 | O=C(N/N=C/c1ccc2nccnc2c1)c1ccc(Br)cc1 | 6.31 µM [falling, single point] | 
35 | N/C(=N/OC(=O)c1ccccc1Cl)c1ncc([N+](=O)[O-])s1 | 12.6 µM [falling, single point] | 12.6 µM [rising, partial curve, poor fit]
36 | O=C(Nc1ccc(F)cc1)N1CCc2ccccc2C1 | 15.8 µM [falling, partial curve] | 
37 | Cc1cc(NC(=O)c2cc(C(C)C)on2)no1 | 15.8 µM [falling, single point] | 
38 | CC(/C=N/NC(=O)c1cnccn1)=C\c1ccco1 | 35.5 µM [falling, single point] | 
39 | C/C(CC(=O)NC1CCCCC1)=N\NC(=O)c1ccccn1 | 7.08 µM [falling, partial curve] | 
40 | CCc1ccnc(NC(=O)Nc2ccc(OCc3ccccc3)cc2)c1 | 12.6 µM [rising, partial curve] | 
41 | Nc1nc(-c2ccccc2)c(-c2ccccc2)o1 | 6.31 µM [rising, single point] | 
42 | Cc1noc(NS(=O)(=O)c2ccc(N/C=C\C(=O)c3cccs3)cc2)c1C | 35.5 µM [falling, single point] | 

Row | SMILES | AC50 [1] | AC50 [2]
43 | COc1ccc(-c2csc(N3CCOCC3)n2)cc1OC | 20.6 µM [rising, partial curve] | 
44 | CCc1ccc(/C=c2\s/c(=C\C(=O)C(C)(C)C)[nH]c2=O)cc1 | 0.461 µM [rising, full curve, poor fit] | 
45 | O=C1NCC2=C1C(c1ccccc1)Nc1ccccc1N2 (centres undefined) | 14.1 µM [falling, single point] | 
46 | CCOC(=O)C1=C(c2ccccc2)O/C(=C(/C#N)C(F)(F)F)S1 | 18.4 µM [rising, partial curve, poor fit] | 
47 | COc1cc(NC(=O)c2nccnc2N)cc(C(=O)Nc2cccc(C(F)(F)F)c2)c1 | 12.6 µM [rising, single point] | 
48 | COc1ccc(CCNC(=O)c2cc3c(=O)n4cccc(C)c4nc3n(Cc3ccco3)c2=N)cc1OC | 11.2 µM [falling, partial curve] | 28.2 µM [falling, single point]
49 | CCC1=NN(C(=O)c2ccc(Br)cc2)C(O)(c2ccccc2)C1 (centres undefined) | 18.4 µM [falling, single point] | 
50 | CN(C)c1ccc(C(CNS(=O)(=O)c2ccc3ccccc3c2)c2c[nH]c3ccccc23)cc1 (centres undefined) | 29.1 µM [falling, single point] | 
51 | N#CCSc1ncnc2ccccc12 | 12.6 µM [falling, partial curve] | 
52 | CN1CCN(C2=Cc3ccc(Cl)cc3Sc3ccc(F)cc32)CC1 | 16.4 µM [falling, partial curve] | 25.9 µM [rising, partial curve, poor fit]
53 | Cc1ccc(C)c2sc(NC(=O)CN3C(=O)CCC3=O)nc12 | 7.08 µM [falling, full curve, poor fit] | 4.47 µM [rising, full curve, poor fit]
54 | COC(=O)[C@]1(Cc2ccccc2)N[C@H](c2ccc(SC3CCCCC3)c(OC)c2)[C@@H]2C(=O)N(C)C(=O)[C@@H]21 | 10.3 µM [falling, partial curve, poor fit] | 
55 | NS(=O)(=O)c1ccc(CCNCc2ccccc2OCc2ccc(F)cc2)cc1 | 35.5 µM [falling, single point] | 
56 | CCN(CC)S(=O)(=O)c1ccc2oc(SCC3CN=C(c4ccc(OC)cc4)S3)nc2c1 (centres undefined) | 3.16 µM [rising, partial curve, poor fit] | 
57 | NC(=O)/C=C\C(=O)Nc1cccc(C(F)(F)F)c1 | 11.2 µM [falling, partial curve, poor fit] | 
58 | CCN(CC)C(=O)c1[nH]cnc1C(=O)N[C@@H](CC(C)C)C(=O)OCc1ccccc1 | 1.26 µM [falling, full curve, poor fit] | 
59 | O=[N+]([O-])c1ccc(NC(=S)NCc2ccc(F)cc2)cc1 | 25.1 µM [falling, single point] | 
60 | O=[N+]([O-])c1cccnc1SCc1c(F)cccc1Cl |  | 11.2 µM [falling, partial curve]
61 | COc1ccccc1-c1nnc(NC(=O)c2ccccc2F)o1 | 8.2 µM [falling, partial curve, poor fit] | 
62 | Cc1ccc(CC(=O)Nc2ccc(F)c([N+](=O)[O-])c2)cc1C |  | 15.8 µM [rising, partial curve, poor fit]
63 | COc1cccc(NC(=O)[C@H](CC(C)C)NC(=O)[C@@H]2Cc3ccccc3CN2)c1 | 0.112 µM [falling, full curve, poor fit] | 

Three compounds picked at random from the list so far, as already listed:
Row | SMILES | AC50 [1] | AC50 [2]
59 | O=[N+]([O-])c1ccc(NC(=S)NCc2ccc(F)cc2)cc1 | 25.1 µM [falling, single point] | 
46 | CCOC(=O)C1=C(c2ccccc2)O/C(=C(/C#N)C(F)(F)F)S1 | 18.4 µM [rising, partial curve, poor fit] | 
52 | CN1CCN(C2=Cc3ccc(Cl)cc3Sc3ccc(F)cc32)CC1 | 16.4 µM [falling, partial curve] | 25.9 µM [rising, partial curve, poor fit]
